The series is described as follows: general procedure: Fmoc solid-phase peptide synthesis; PAL Peg-PS resin; HCTU. Conditions: whole synthesis, Analytical method A (Rt in min).
On to “H-APLEPVYPGDNATPEQMAQYAADLRRYINTLTRQRY-NH2”, for which the “purity (crude or final not stated)” value is 98.0%. Turning to “H-APLEPVYPGDNATPEQMAQYAADLRRYINTITRQRY-NH2”, the “purity (crude or final not stated)” value is given as 100.0%. To “H-PLEPVYPGDNATPEQMAQYAADLRRYINTITRQRY-NH2” belongs 98.0%; to “H-PLEPVYPGDNATPEQMAQYAADLRRYINMITRQRY-NH2”, 95.1%.

On to “H-PLEPVYPGDNATPEQMAQYAADLRRYINTLTRQRY-NH2”, for which the “purity (crude or final not stated)” value is 97.9%.

The values are drawn from patent publication US20100160226A1 (7TM PHARMA A/S, priority 2007, published 2010).
